In PubChem BioAssay AID493014 (National Center for Advancing Translational Sciences (NCATS), 2011):
Among all 340,000 compounds or so, about 170 (0.05%) were called active. This list was built around the results that the source calls inconclusive (neither active nor inactive); the mix of calls is not that of the screen. The call rests on the fitted dose curve; in most records, active means well fitted inhibition curve with a large enough effect in the signal ratio, with a control signal flat (not every such curve was filed as active); inconclusive means small, poorly fitted or top-dose-only effect, or effect the other way, or a change in a side signal; inactive means flat fitted curve, though single readings scatter; the % refers to the signal ratio. Potencies beside an inconclusive call are fits to weak or partial responses and may not hold up.

assay: qHTS Assay to Find Inhibitors of Chronic Active B-Cell Receptor Signaling; conditions: ABC-DLBCL IkBa-CBG/CBR reporter, luminescence ratio (green luciferase fused to IkBa over red control in TMD8 lymphoma cells), 4 h; activity change, negative = inhibition: at 46.1 µM (top of the series) unless noted;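 on activity change, negative = inhibition: plate controls were basal doxycycline-induced cells for no effect and cells given 10 µM MG132 for full effect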
Procedure, shortened: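 TMD8 human ABC-DLBCL cells with doxycycline-inducible IκBα–green luciferase fusion and unfused red luciferase, in 0.5% FBS medium; compounds up to 46 uM, 4 h at 37C. Green/red luminescence ratio, filter-overlap corrected, fitted to concentration-response curves.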
Potency means the concentration at half of the fitted maximal effect.

Row | Structure (SMILES) | activity change, negative = inhibition | Potency
1 | Cc1cccnc1NC(=S)Nc1ccc(F)cc1F | inactive | –
2 | O=C(c1cc(-c2ccc(O)cc2)on1)N1CCN(c2ccccc2)CC1 | inactive | –
3 | O=C(CSc1ccc(Cl)cc1)N1CCOCC1 | inactive | –
4 | CCOC(=O)c1nc(N)c(C(=O)OCC)[nH]1 | – | inconclusive: 23.1 µM [rising, partial curve, poor fit]
5 | COc1cccc(NC(=O)c2cccc(N3C(=O)C4C5C=CC(C5)C4C3=O)c2)c1 (stereo unspecified) | inconclusive: -23.9% | –
6 | CCCSc1nnc2nc(C)cc(C)n12 | inconclusive: -0.0771% | –
7 | COc1ccc2[nH]cc(C(O)CN3CCN(c4ccccc4)CC3)c2c1 (stereo unspecified) | inconclusive: -7.61% | –
8 | CC(=O)Nc1ccc(NC(=O)C(=O)NCC(c2ccco2)N2CCc3ccccc3C2)cc1 (stereo unspecified) | inconclusive: 13.9% | –
9 | C/C(=N\Oc1cccc(F)n1)c1ccc(Cl)cc1Cl | inconclusive: 23% | –
10 | O=C(Cn1cnc([N+](=O)[O-])n1)N/N=C/c1ccccc1O | – | inconclusive: 22.4 µM [falling, single point]
11 | CCOc1cccc(C(=O)Nc2nnc(-c3ccco3)s2)c1 | – | inconclusive: 5.01 µM [falling, single point]
12 | COc1ccc(NC(=O)c2ccc(Cl)c(S(=O)(=O)N3CCc4ccccc4C3)c2)cn1 | inconclusive: -0.0581% | –
13 | Cn1c(NC(=O)c2ccccc2NC(=O)C(C)(C)C)nc2ccccc21 | – | inconclusive: 8.2 µM [falling, partial curve]
14 | CC(=O)N1CCN(c2ccc(C(N)=O)cc2[N+](=O)[O-])CC1 | inactive | –
15 | Cc1cc(C(=O)N2CCc3ccccc3C2)n[nH]1 | – | inconclusive: 25.1 µM [falling, single point]
16 | O=C(NC1CC1)C1CCN(C2CCN(C(=O)/C=C/c3ccc(F)cc3)CC2)CC1 | inconclusive: -20.1% | –
17 | COc1ccc(NC(=O)c2sc(-c3ccccc3)nc2C)c(OC)c1 | inconclusive: 5.3% | –
18 | Cc1nn2cc(-c3ccc(-c4ccccc4)cc3)nc2s1 | inactive | –
19 | Cc1cc(C)n(Cc2ccc(NC(=O)c3nn(C)cc3[N+](=O)[O-])cc2)n1 | – | inconclusive: 10.3 µM [falling, partial curve, poor fit]
20 | CC1CCCN(C(=O)COC(=O)CNS(=O)(=O)c2ccc3ccccc3c2)C1 (stereo unspecified) | – | inconclusive: 29.1 µM [falling, single point]
21 | Cc1cccc(-n2c(O)c(C=NCCCN3CCOCC3)c3ccccc3c2=O)c1 | inconclusive: 7% | –

Row | Structure (SMILES) | activity change, negative = inhibition | Potency
22 | CC(=O)Nc1ccc(C(=O)/C=C/c2ccc[nH]2)cc1 | inconclusive: -28.5% | –
23 | COc1ccc(C(=O)O/N=C(\N)Cc2ccc(Cl)c(Cl)c2)cc1OC | inconclusive: 14.6% | –
24 | COC(=O)COc1ccc(S(=O)(=O)Nc2ccc3c(c2)OCO3)cc1 | – | inconclusive: 29.1 µM [falling, single point]
25 | N#CC1=C2Sc3ccccc3N2CCCC1=O | – | inconclusive: 15.8 µM [falling, partial curve]
26 | Cc1nc(Nc2ccc(S(=O)(=O)N3CCCC3)cc2)c2nnn(Cc3ccccc3)c2n1 | – | inconclusive: 11.6 µM [rising, partial curve, poor fit]
27 | COc1cc2cc(CN(CCCN3CCOCC3)C(=O)Nc3ccccc3F)c(=O)[nH]c2cc1OC | inactive | –
28 | CCCC(=O)N(Cc1cc(=O)[nH]c2ccccc12)c1ccccc1OC | – | inconclusive: 22.4 µM [falling, single point]
29 | Cc1ccc2c(C)c(C(=O)N3CCN(C4CCS(=O)(=O)C4)CC3)oc2c1C (stereo unspecified) | – | inconclusive: 35.5 µM [falling, single point]
30 | CCN1/C(=C/C=C/c2sc3ccccc3[n+]2CC)Sc2ccccc21 | – | inconclusive: 7.31 µM [rising, partial curve]
31 | Cc1ccc(C2=NNC(c3ccc(Cl)cc3)=Nc3ccccc32)o1 | – | inconclusive: 29.1 µM [falling, single point]
32 | O=C(CN1C(=O)S/C(=C\c2ccc(F)cc2)C1=O)NC1C=CS(=O)(=O)C1 (stereo unspecified) | – | inconclusive: 5.62 µM [falling, partial curve, poor fit]
33 | O=C(COc1ccccc1)Nc1ccc2c(c1)C(=O)N(CC1CCCO1)C2=O (stereo unspecified) | inconclusive: 5.87% | –
34 | COP(=O)(OC)c1nc(-c2cccc3ccccc23)oc1NCc1ccccc1 | – | inconclusive: 8.2 µM [falling, partial curve, poor fit]
35 | COc1ccc(-c2cc(C(F)(F)F)n3nc(C(=O)N(C)Cc4ccccc4)cc3n2)cc1OC | inactive | –
36 | COC(=O)c1c(N2C(=O)[C@H]3[C@@H](C2=O)[C@]2(C(=O)Nc4c(C)cc(C)cc42)N2CCC[C@@H]32)sc(C)c1C | inconclusive: -1.34% | –
37 | CSCC[C@H](NC(=O)c1ccc(Cl)c([N+](=O)[O-])c1)c1nc2ccccc2[nH]1 | inconclusive: 0.291% | –
38 | Cc1ccc2cccc(NS(=O)(=O)c3ccccc3)c2n1 | inconclusive: -3.58% | –
39 | CC1(C)CC(=O)c2cc(C(=O)NCc3ccco3)c(=O)n(-c3ccccc3)c2C1 | inactive | –
40 | CC(NC(=O)c1ccccc1O)c1ccccc1 (stereo unspecified) | inconclusive: 21.9% | –
41 | c1ccc(-c2cc(-c3ccncc3)nc3ccc4ccccc4c23)cc1 | inactive | –
42 | CC1(C)C(c2ccccc2)=NC(c2ccc(Br)cc2)N1O (stereo unspecified) | inconclusive: 7.63% | –

Row | Structure (SMILES) | activity change, negative = inhibition | Potency
43 | CCCCC(=O)N(c1ccc(OCC)cc1)C1C=CS(=O)(=O)C1 (stereo unspecified) | inactive | –
44 | CCOC(=O)Cn1cc(Cl)cc(C(=O)Nc2ccccc2)c1=O | inconclusive: 1.28% | –
45 | COc1ccc(CNc2ncnc3cc(Cl)ccc23)cc1 | inconclusive: -1.63% | –
46 | O=C(c1cc2cc([N+](=O)[O-])ccc2oc1=O)n1cccn1 | inactive | –
47 | COc1cc2c(cc1OC)C(C)N(C(=O)c1sccc1C)CC2 (stereo unspecified) | inconclusive: -15.8% | –
48 | C=CCn1c(SCCOc2ccc(OC)cc2)nnc1C(C)NC(=O)c1ccc(OC)cc1 (stereo unspecified) | – | inconclusive: 0.103 µM [falling, full curve, poor fit]
49 | COc1cc(C(=O)/C=C/c2cccnc2)c([N+](=O)[O-])cc1OC | – | inconclusive: 23.1 µM [falling, partial curve]
50 | COc1cccc(NC(=O)c2cc3ccccc3oc2=O)c1 | – | inconclusive: 17.8 µM [falling, single point]
51 | O=C(COC(=O)Cc1cccs1)Nc1ccc(F)c(F)c1F | inconclusive: 1.09% | –
52 | Nc1ccc(/C=C/C(=O)c2cccs2)cc1 | – | inconclusive: 31.6 µM [rising, single point]
53 | COc1ccccc1-c1cc(C(F)(F)F)nc(N2CCCC2)n1 | inactive | –
54 | O=C(CN1C(=O)CSc2ccccc21)N/N=C/c1ccco1 | inconclusive: -7.01% | –
55 | C/C(=N\OCC(=O)Nc1ccccc1Br)c1cccs1 | inconclusive: 1.58% | –
56 | COc1ccc(-n2cc(C(=O)c3ccc4ccccc4c3O)cn2)cc1 | – | inconclusive: 15.8 µM [rising, single point]
57 | CN(CC(=O)Nc1ccccc1Br)C(=O)COc1cccc2c1OC(C)(C)C2 | – | inconclusive: 4.61 µM [falling, partial curve, poor fit]
58 | CC(NC(=O)Nn1cnnc1)(C(F)(F)F)C(F)(F)F | inconclusive: 16.7% | –
59 | CC(C)CCNc1nc(N)c([N+](=O)[O-])c(NCC2CCCO2)n1 (stereo unspecified) | inconclusive: -0.473% | –
60 | CCCCc1cc(=O)oc2cc(OCC(=O)N(CC)CC)ccc12 | inactive | –
61 | O=S1(=O)C=C(Sc2nnc(-c3ccccc3)o2)c2ccccc21 | inconclusive: 12% | –
62 | O=S(=O)(Nc1cccc(-c2ccc(N3CCCCCC3)nn2)c1)c1ccc(C(F)(F)F)cc1 | inconclusive: 24.4% | –
63 | Cc1ccc(OCC(=O)N(Cc2ccc(N(C)C)cc2)C2CCS(=O)(=O)C2)cc1C (stereo unspecified) | – | inconclusive: 22.4 µM [falling, single point]

Row | Structure (SMILES) | activity change, negative = inhibition | Potency
64 | Cc1ccc(S(=O)(=O)N2CCOCC2)cc1NC(=O)CN1C(=O)NC2(CCCC2)C1=O | inactive | –
65 | O=S(=O)(c1ccc2c(c1)OCCO2)N1CCN(c2ncnc3sccc23)CC1 | inactive | –
66 | O=C(c1ccco1)N1N=C(c2ccc(Br)cc2)CC1(O)C(F)(F)F (stereo unspecified) | inactive | –
67 | COc1cc(/C=N\Nc2cc(=O)n(C)c(=O)n2C)ccc1O | inconclusive: 2.89% | –
68 | O=C(NC1CC(=O)N(c2ccc(F)cc2)C1)C1CC1 (stereo unspecified) | inactive | –
69 | COc1cc(NC(=O)CCCn2c(=S)[nH]c3ccccc3c2=O)cc(OC)c1OC | inactive | –
70 | CC(C)NC(=O)CCN1C(=O)c2ccccc2Sc2ncccc21 | inactive | –
71 | COc1ccc(NC2CCCN(C(=O)c3ccc(C(C)=O)s3)C2)cc1 (stereo unspecified) | inconclusive: 2.75% | –
72 | Cc1nn(C)c(C)c1CNC(=O)Nc1cccc(Cl)c1 | inconclusive: 10.6% | –
73 | COc1ccc(C(=O)NCC(=O)N/N=C/c2ccco2)cc1OC | inconclusive: -13.8% | –
74 | N#Cc1cc([N+](=O)[O-])ccc1Oc1cccc(/C=N/NC(=O)c2cccc(Cl)c2)c1 | inconclusive: 11.1% | –
75 | Cc1cc(NCc2ccccc2Cl)n2nnnc2n1 | inconclusive: -0.95% | –
76 | CC(C)c1ccc(NC(=O)CSc2nc(-c3ccccc3F)nc3nc[nH]c23)cc1 | inconclusive: -0.208% | –
77 | Cc1[nH]c2ccccc2c1-c1csc(N)n1 | inconclusive: -18% | –
78 | Cc1cc(F)c(F)c(C(=O)N2CCC(C)CC2)c1Cl | inactive | –
79 | COc1ccc(NC(=O)CN(c2ccc(C)cc2)S(=O)(=O)c2c(C)nn(C)c2C)cc1 | inconclusive: 8.52% | –
80 | Cc1cccn2c(=O)c(C=C(C#N)C#N)c(N3CCN(c4cccc(Cl)c4)CC3)nc12 | inconclusive: -1.6% | –
81 | O=C(NC(=S)NCc1ccccc1)c1cccnc1 | inconclusive: 9.88% | –

Part of the list above, comma-delimited:
Row,Structure (SMILES),"activity change, negative = inhibition",Potency
67,COc1cc(/C=N\Nc2cc(=O)n(C)c(=O)n2C)ccc1O,inconclusive: 2.89%,–
70,CC(C)NC(=O)CCN1C(=O)c2ccccc2Sc2ncccc21,inactive,–
73,COc1ccc(C(=O)NCC(=O)N/N=C/c2ccco2)cc1OC,inconclusive: -13.8%,–
80,Cc1cccn2c(=O)c(C=C(C#N)C#N)c(N3CCN(c4cccc(Cl)c4)CC3)nc12,inconclusive: -1.6%,–
